Values from PubChem BioAssay AID1259254 (NCATS, 2017).

Test: 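Finding genes that stop cells copying their DNA twice in one cycle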 (primary screen)
Cells: human HCT116 colorectal cancer cells
Reagents: single siRNA against human genes
Time to read-out: 3 days
Detection: 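Nuclei stained with Hoechst and imaged; cell-cycle phase assigned by DNA content; G2 share scaled per plate, non-targeting siRNA 0%, GMNN siRNA 100%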
Scale: G2 robust z-score and G2 cells, % of GMNN control: higher = more G2 cells, more excess DNA replication; raw share of cells in G2: higher = larger share of cells with G2 DNA content
Hit rule: 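An siRNA counts as active if its G2 robust z-score lies at least 5 MADs above the screen median; here such calls match roughly 38% of GMNN control or more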
Here is a random part of about 59,000 deposited reagents. About 1,550 of all reagents (2.6%) were called active. 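G2 share is only a proxy for re-replication; each gene was hit by three separate siRNAs, and active genes were retested.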 Raw values are not corrected between plates. Unmarked entries are inactive. Reagents against one gene are numbered here. Not stated in the record: the amount of reagent.

Target gene | reagent no. | G2 robust z-score | G2 cells, % of GMNN control | raw share of cells in G2 (%)
CDH8 | 1 | 1.27 | 11.9 | 9.22
CDH8 | 2 | 8.49 (active) | 62.7 | 27.9
CDH8 | 3 | 0.287 | 4.98 | 5.81
SEMA4C | 1 | -0.189 | 1.64 | 5.03
SEMA4C | 2 | 3.78 | 29.5 | 16.7
SEMA4C | 3 | 0.939 | 9.58 | 10.6
LSMEM1 | 1 | 2.48 | 20.4 | 11.1
LSMEM1 | 2 | -0.768 | -2.44 | 2.1
LSMEM1 | 3 | -0.329 | 0.653 | 3.47
S100A9 | 1 | -0.885 | -3.26 | 2.17
S100A9 | 2 | -1.29 | -6.08 | 2
S100A9 | 3 | 0.152 | 4.04 | 4.57
KLHL28 | 1 | 0.388 | 5.7 | 5.64
KLHL28 | 2 | -0.145 | 1.95 | 5.09
KLHL28 | 3 | 1.75 | 15.3 | 8.25
H1-4 | 1 | -1.06 | -4.46 | 1.78
H1-4 | 2 | -0.643 | -1.56 | 4.57
H1-4 | 3 | -0.34 | 0.575 | 4.3
YTHDC1 | 1 | 0.627 | 7.38 | 7.22
YTHDC1 | 2 | 2.95 | 23.7 | 10.4
YTHDC1 | 3 | 0.249 | 4.72 | 4.42
SYPL2 | 1 | -0.0969 | 2.29 | 3.88
SYPL2 | 2 | 0.0503 | 3.32 | 4.32
SYPL2 | 3 | -0.0385 | 2.7 | 4.47
MFAP3L | 1 | -0.205 | 1.53 | 4.03
MFAP3L | 2 | -0.453 | -0.222 | 5.89
MFAP3L | 3 | 0.261 | 4.8 | 5.35
CRHBP | 1 | -0.87 | -3.16 | 3.01
CRHBP | 2 | -0.354 | 0.474 | 5.17
CRHBP | 3 | -1.38 | -6.74 | 2.56
F10 | 1 | 5.37 (active) | 40.8 | 19.8
F10 | 2 | -0.222 | 1.41 | 5.41
F10 | 3 | -0.819 | -2.8 | 2.87
ARG2 | 1 | -0.0809 | 2.4 | 5.54
ARG2 | 2 | -0.465 | -0.301 | 3.88
ARG2 | 3 | 1.67 | 14.7 | 10.3
CDK11B | 1 | 0.735 | 8.14 | 8.3
CDK11B | 2 | 0.142 | 3.97 | 6.75
CDK11B | 3 | -1.12 | -4.9 | 2.3
TMEM108 | 1 | 1.91 | 16.4 | 11.7
TMEM108 | 2 | 0.87 | 9.09 | 8.68
TMEM108 | 3 | 1.35 | 12.5 | 5.99
C5orf34 | 1 | 0.0354 | 3.22 | 4.87
C5orf34 | 2 | -0.227 | 1.37 | 4
C5orf34 | 3 | 0.181 | 4.24 | 6.45
NUGGC | 1 | 0.478 | 6.33 | 5.94
NUGGC | 2 | 1.44 | 13.1 | 9.1
NUGGC | 3 | 0.573 | 7 | 7.63

7 entries from above, reformatted.
Target gene	reagent no.	G2 robust z-score	G2 cells, % of GMNN control	raw share of cells in G2 (%)
YTHDC1	1	0.627	7.38	7.22
YTHDC1	2	2.95	23.7	10.4
YTHDC1	3	0.249	4.72	4.42
SYPL2	1	-0.0969	2.29	3.88
SYPL2	2	0.0503	3.32	4.32
SYPL2	3	-0.0385	2.7	4.47
MFAP3L	1	-0.205	1.53	4.03

Further entries:
Target gene | reagent no. | G2 robust z-score | G2 cells, % of GMNN control | raw share of cells in G2 (%)
HDAC3 | 1 | 2.1 | 17.7 | 11.1
HDAC3 | 2 | 1.59 | 14.2 | 10.2
HDAC3 | 3 | 0.268 | 4.85 | 6.74
LMAN1 | 1 | 3.52 | 27.7 | 14.5
LMAN1 | 2 | -0.0176 | 2.84 | 6.18
LMAN1 | 3 | 0.243 | 4.67 | 4.8
LTBP4 | 1 | 4.22 | 32.7 | 16.4
LTBP4 | 2 | -0.505 | -0.589 | 5.06
LTBP4 | 3 | 0.283 | 4.96 | 6.79
UPP1 | 1 | 5.37 (active) | 40.7 | 17.9
UPP1 | 2 | -0.664 | -1.71 | 3.63
UPP1 | 3 | 1.44 | 13.1 | 11.1
MNT | 1 | 0.425 | 5.96 | 7.51
MNT | 2 | -0.559 | -0.966 | 3.84
MNT | 3 | -0.242 | 1.27 | 3.81
SOS1 | 1 | -0.524 | -0.719 | 5.44
SOS1 | 2 | -0.616 | -1.37 | 4.08
SOS1 | 3 | 0.126 | 3.85 | 5.23
RNF148 | 1 | 2.33 | 19.4 | 14.3
RNF148 | 2 | -1.71 | -9.03 | 1.43
RNF148 | 3 | -0.269 | 1.07 | 4.68
IKZF2 | 1 | -0.322 | 0.699 | 3.76
IKZF2 | 2 | -0.533 | -0.781 | 5.64
IKZF2 | 3 | -0.804 | -2.69 | 2.21
SERPINE3 | 1 | 0.547 | 6.82 | 6.35
SERPINE3 | 2 | 0.714 | 7.99 | 6.19
SERPINE3 | 3 | -0.761 | -2.39 | 2.29
NPHS2 | 1 | -1 | -4.09 | 2.74
NPHS2 | 2 | 2.78 | 22.5 | 15.1
NPHS2 | 3 | -1.23 | -5.71 | 2.6
GFER | 1 | -0.417 | 0.0359 | 5.25
GFER | 2 | 8.31 (active) | 61.4 | 28.6
GFER | 3 | -0.629 | -1.46 | 3.14
EEF1AKMT2 | 1 | -0.176 | 1.73 | 4.44
EEF1AKMT2 | 2 | -0.0511 | 2.61 | 4.55
EEF1AKMT2 | 3 | -0.434 | -0.0882 | 4.75
UCMA | 1 | -0.0355 | 2.72 | 4.56
UCMA | 2 | -0.358 | 0.446 | 3.28
UCMA | 3 | -0.0711 | 2.47 | 3.98
